{
  "sequences": {"note": "Amino acid sequences for entries named in this document (tags omitted).", "UniProt Q0JBA9, entry or part of it": "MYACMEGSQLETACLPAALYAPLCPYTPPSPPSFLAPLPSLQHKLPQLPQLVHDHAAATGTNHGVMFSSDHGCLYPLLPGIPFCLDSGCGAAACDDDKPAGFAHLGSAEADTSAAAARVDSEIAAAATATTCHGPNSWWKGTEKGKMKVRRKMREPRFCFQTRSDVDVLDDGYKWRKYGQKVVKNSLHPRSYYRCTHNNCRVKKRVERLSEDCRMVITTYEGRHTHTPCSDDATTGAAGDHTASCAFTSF"},
  "source": "paper PMC7819943",
  "about": "“Rice protein-binding microarrays: a tool to detect cis-acting elements near promoter regions in rice”",
  "note": "This is one part of the list.",
  "data": [
    {"molecular_target": "OsWRKY34 (Oryza sativa, UniProt Q0JBA9 1-250)", "assay": "protein-binding microarray (RPBM); PBS, 2% BSA, 51.3 ng/ul salmon testes DNA, 50 uM zinc acetate, 200 nM TF, 25 C, 1 h; high values mean tight binding", "conditions": "protein: recombinant; tags: N-terminal polyhistidine and DsRed monomer fusion (pET32a); label: CyDye5-dUTP incorporated in the synthesized complementary strand; 3' TTTTT single-stranded linker to array surface; dsDNA, one strand shown", "outline": "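Per-feature fluorescence intensity (arbitrary units), read on an Axon 4000B scanner, is the binding signal. Transcription factors carrying an N-terminal polyhistidine tag and DsRed fusion were expressed in E. coli BL21-CodonPlus and purified on Ni–NTA. A custom Agilent array, made double-stranded by primer extension with Cy5-dUTP and blocked with 2% BSA, was incubated with 200 nM protein in PBS, 2% BSA, salmon testes DNA and 50 µM zinc acetate at 25 °C for 1 h and then washed.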", "values": [
      {"sequence": "AAATGTTTCATATCCACACAACCCTTCTCGTCTCGTGTATCGGAGTCACCTAGTGCAG", "binding signal": "9340 fluorescence intensity (a.u.)"},
      {"sequence": "ACTTCTACTCCTACTTCCCTGTGTGGCCCACAGCTAGATACGGAGTCACCTAGTGCAG", "binding signal": "10300 fluorescence intensity (a.u.)"},
      {"sequence": "CATTATACATTATGATTTTTCATTATAACTTTTCTTTTCTCGGAGTCACCTAGTGCAG", "binding signal": "9020 fluorescence intensity (a.u.)"},
      {"sequence": "GGGTCGGCAATGAATATTTGTTCTCGAGTGACGTACAGCACGGAGTCACCTAGTGCAG", "binding signal": "11100 fluorescence intensity (a.u.)"},
      {"sequence": "ACCAGAGCCAGCTGACTGCTAATACCCTTGCTTTGGCCAACGGAGTCACCTAGTGCAG", "binding signal": "9570 fluorescence intensity (a.u.)"},
      {"sequence": "TTCGCCTTCGCCTTCGTCTTCGTCTACCTCATCTTCGAAACGGAGTCACCTAGTGCAG", "binding signal": "9330 fluorescence intensity (a.u.)"},
      {"sequence": "AGGTGTGCCAGATGGTTTCTCTGTTCCTCACCACAGCTCGCGGAGTCACCTAGTGCAG", "binding signal": "8350 fluorescence intensity (a.u.)"},
      {"sequence": "TCCTTGCCTCTCTCTCTTCTCCTTGTGTTGATAGCGAGAACGGAGTCACCTAGTGCAG", "binding signal": "8560 fluorescence intensity (a.u.)"},
      {"sequence": "AACATTTGTTAAGTTTTTTTTATTGTGTCATATTTTCATCCGGAGTCACCTAGTGCAG", "binding signal": "10100 fluorescence intensity (a.u.)"},
      {"sequence": "TAGAATCAAGAGTTTACACTTCCCATGTTGTACAGATTACCGGAGTCACCTAGTGCAG", "binding signal": "8670 fluorescence intensity (a.u.)"},
      {"sequence": "TCTTGTGTGCATCCTCTCTCACCTTACAGTGCTTTTCGTTCGGAGTCACCTAGTGCAG", "binding signal": "14500 fluorescence intensity (a.u.)"},
      {"sequence": "GAGATTATCCGCCTAAGACTCAGTTTTTCTTCTTTTCCCTCGGAGTCACCTAGTGCAG", "binding signal": "9120 fluorescence intensity (a.u.)"},
      {"sequence": "AGAAGAGGTCCCGTATTTACCACCACCGTTTTGACTCCTCCGGAGTCACCTAGTGCAG", "binding signal": "9460 fluorescence intensity (a.u.)"},
      {"sequence": "CCTTCCCACTCGTCAGAAGCATCCGCCGCCTACCTGCCAACGGAGTCACCTAGTGCAG", "binding signal": "9290 fluorescence intensity (a.u.)"},
      {"sequence": "TTTGTTTTTTATTTTTTTTTGAATTCGGTCCATTTTTATTCGGAGTCACCTAGTGCAG", "binding signal": "9400 fluorescence intensity (a.u.)"},
      {"sequence": "CAGATATCTCTATTTACCTGCTACTCCTGAAGAGACTGGACGGAGTCACCTAGTGCAG", "binding signal": "8460 fluorescence intensity (a.u.)"},
      {"sequence": "GAATCAGAATTCGGGCAAGCAACGTTTTTTTATTTCCGATCGGAGTCACCTAGTGCAG", "binding signal": "8170 fluorescence intensity (a.u.)"},
      {"sequence": "ATAGTGCCAAGTCAATCATTTTTAACTTTGACTATTAATACGGAGTCACCTAGTGCAG", "binding signal": "9950 fluorescence intensity (a.u.)"},
      {"sequence": "AAACCCTGCCATTGTTATCGAATTTGCAAGTGCATCCATACGGAGTCACCTAGTGCAG", "binding signal": "8590 fluorescence intensity (a.u.)"},
      {"sequence": "ACTTTCCCACCACGTACGCCCGCCACTCGCGCCGTCCCCACGGAGTCACCTAGTGCAG", "binding signal": "11500 fluorescence intensity (a.u.)"},
      {"sequence": "ATTGTTATGTTCCTTTGTTTTCTTATAAATATAATTTAATCGGAGTCACCTAGTGCAG", "binding signal": "9560 fluorescence intensity (a.u.)"},
      {"sequence": "TTTTTCTCACTCCATTTCATCCAATCCATCCATTCATTTCCGGAGTCACCTAGTGCAG", "binding signal": "10000 fluorescence intensity (a.u.)"},
      {"sequence": "CTCCTCCGCCGCCTCCACCGGCGGCACCTCCACCTGCACCCGGAGTCACCTAGTGCAG", "binding signal": "8470 fluorescence intensity (a.u.)"},
      {"sequence": "ACCAATCTATGAAACATCATTCATACTTCCATATCTTATTCGGAGTCACCTAGTGCAG", "binding signal": "8610 fluorescence intensity (a.u.)"},
      {"sequence": "TTATTTTGCTCCTCACTTTTCTTCACTAGCTCAAACACTTCGGAGTCACCTAGTGCAG", "binding signal": "10000 fluorescence intensity (a.u.)"},
      {"sequence": "ATCGTGTGTGGTCTGCGCTGTGAATGTGTGAGAGAGATCTCGGAGTCACCTAGTGCAG", "binding signal": "8480 fluorescence intensity (a.u.)"},
      {"sequence": "TGTGGACAAAACCTCCGCTCCGATCTCGAGCACCACAAGTCGGAGTCACCTAGTGCAG", "binding signal": "8030 fluorescence intensity (a.u.)"},
      {"sequence": "AGCTTCCACCTCCTGATCCACCCGAACCCTAGAATCCACTCGGAGTCACCTAGTGCAG", "binding signal": "8210 fluorescence intensity (a.u.)"},
      {"sequence": "TTCCAGTAATTAAACCATTTGTTCGAGCCTCATCGATTTCCGGAGTCACCTAGTGCAG", "binding signal": "12100 fluorescence intensity (a.u.)"},
      {"sequence": "ACCCCAACTCCGTCCAGGACTCCAACGCCGCCGTCCACTCCGGAGTCACCTAGTGCAG", "binding signal": "10100 fluorescence intensity (a.u.)"},
      {"sequence": "CGCTTCTCTCCCTGAGCTCGGCCTCGTGTCACTGACGTCGCGGAGTCACCTAGTGCAG", "binding signal": "8120 fluorescence intensity (a.u.)"},
      {"sequence": "ACGCACCCGCGTTTCATTTCCATTTCCACCTCTTCTTCTCCGGAGTCACCTAGTGCAG", "binding signal": "8820 fluorescence intensity (a.u.)"},
      {"sequence": "CGTGTGCGGGTCATGCTTCCATAAATGACTTTTTACCTACCGGAGTCACCTAGTGCAG", "binding signal": "9060 fluorescence intensity (a.u.)"},
      {"sequence": "TTGGTTGTATTAAGGCTGTGTTTAGTTTCACGCTAAAATTCGGAGTCACCTAGTGCAG", "binding signal": "11100 fluorescence intensity (a.u.)"},
      {"sequence": "AAGAGACTTCTATATCTCTATATCCTTCTTATTTGCGTCCCGGAGTCACCTAGTGCAG", "binding signal": "8080 fluorescence intensity (a.u.)"},
      {"sequence": "TCATGGTTTAATTATTTCTCCCTCACTTCTTCCCAGCTTTCGGAGTCACCTAGTGCAG", "binding signal": "9910 fluorescence intensity (a.u.)"},
      {"sequence": "GGGACTGAGATGATACTTGAGTATTTTTTTATTGACCCTTCGGAGTCACCTAGTGCAG", "binding signal": "9700 fluorescence intensity (a.u.)"},
      {"sequence": "GTGGCTAGTGGTGTGGGGTGGTGGTGCGAAATGACGAGACCGGAGTCACCTAGTGCAG", "binding signal": "12300 fluorescence intensity (a.u.)"},
      {"sequence": "TCTTGCCTGCCTCATCTGCAACCGCCGTGCGCCGTGCGCGCGGAGTCACCTAGTGCAG", "binding signal": "8280 fluorescence intensity (a.u.)"},
      {"sequence": "GTGCAGCCATGGATATTCGTGTCTAACGTTTGACCGTTCGCGGAGTCACCTAGTGCAG", "binding signal": "10100 fluorescence intensity (a.u.)"},
      {"sequence": "ATGCGCAAAAAGAAGACGACATCCTACTAACATTTTCTTTCGGAGTCACCTAGTGCAG", "binding signal": "9050 fluorescence intensity (a.u.)"},
      {"sequence": "GTTAGCACACAGACCATTATCTTTCTCTTGGTCATATATCCGGAGTCACCTAGTGCAG", "binding signal": "8720 fluorescence intensity (a.u.)"},
      {"sequence": "TTCCCCACCCTCACACCGCCGCCTACCACGCCGTCGTCATCGGAGTCACCTAGTGCAG", "binding signal": "9910 fluorescence intensity (a.u.)"},
      {"sequence": "TTTTTGTGGTACAGTTTGTTGGACTCCGGGACAGGTGTCACGGAGTCACCTAGTGCAG", "binding signal": "11500 fluorescence intensity (a.u.)"},
      {"sequence": "TTTACGTAGAAACTTTATTTAGCATCTTGTTCAGCATATACGGAGTCACCTAGTGCAG", "binding signal": "8420 fluorescence intensity (a.u.)"},
      {"sequence": "CTTCCTATCACCTGCCTCTCGTGTGGCCCACTTCCGGACCCGGAGTCACCTAGTGCAG", "binding signal": "8200 fluorescence intensity (a.u.)"},
      {"sequence": "GCCGCGCCGCCGCTCGTCGTAGTTTCTCCCGCGCTGCTGCCGGAGTCACCTAGTGCAG", "binding signal": "8890 fluorescence intensity (a.u.)"},
      {"sequence": "AGTTTTGACATTTCTAAATTTTGGTAGCGTTAAATGTATTCGGAGTCACCTAGTGCAG", "binding signal": "9310 fluorescence intensity (a.u.)"},
      {"sequence": "GCATTGCTTGGTAGCTCTTGATCTCCGCCGTCAACATTTGCGGAGTCACCTAGTGCAG", "binding signal": "11100 fluorescence intensity (a.u.)"},
      {"sequence": "ACTGGATATACCGTCTGTTCCATTCCAAAATGCTCAAATGCGGAGTCACCTAGTGCAG", "binding signal": "8900 fluorescence intensity (a.u.)"},
      {"sequence": "ATGGGGATTGATTCAGTTAGAGGGGATGAAAAAGTCGATGCGGAGTCACCTAGTGCAG", "binding signal": "9870 fluorescence intensity (a.u.)"},
      {"sequence": "GTCCTTGTCACTGTTGTAGCTAGTCATGATTTTAGTTCCACGGAGTCACCTAGTGCAG", "binding signal": "11000 fluorescence intensity (a.u.)"},
      {"sequence": "GCTATGAAACGTATGTTTACTCATGGGTGGGGCAAGCTCTCGGAGTCACCTAGTGCAG", "binding signal": "10400 fluorescence intensity (a.u.)"},
      {"sequence": "TTGTTGTTTTTCGGTACTGTTGATTGAATTAGTGTTATGTCGGAGTCACCTAGTGCAG", "binding signal": "8120 fluorescence intensity (a.u.)"}
    ]}
  ]
}
